PubChem BioAssay AID624316 (Broad Institute, 2012)
Some of the results follow. The source made no clear call on entries shown without one.

Assay: TRPM1 promoter luciferase signal reduction, dose response, MITF inhibitor project, cell-based, SK-MEL-5, dry powder samples, set 4 (AID 624316)
Settings: SK-MEL-5 TRPM1 promoter luciferase reporter, 24 h; at 35 µM (top of the series)
In short: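 Test system: SK-MEL-5 melanoma line stably carrying TRPM1 promoter–luciferase reporter; buffer or medium: DMEM without phenol red plus 10% FBS; dosing: compounds pinned into wells as DMSO solutions; timing: 24 h compound treatment at 37 °C; measured by: SteadyGlo luciferase luminescence; benchmarks: parthenolide as positive control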

CN1CCN(C2=C(NS(=O)(=O)c3ccc(Br)cc3)C(=O)c3ccccc3C2=O)CC1
activity change, negative = inhibition: -88.4%
